Assay results from doi:10.1101/2023.06.26.546636.
No constants are given. Whether binding was seen depends on the method and setting. In cells and extracts the contact can be indirect. Binding calls can cover weak binding; strength is not graded here.

Biological target: B. fragilis Cmr3 (Bacteroides fragilis)
Experiment: co-purification

Row | binding | Binder
1 | binds | B. fragilis Cmr4 (protein, UniProt A0A9X9NER2 1-279) MTTRMYVINTLSNMHVGSGEVNYGVIDNLIQRDSVTNLPNINSSGLKGAIREYFKENEDLVRELFGSAPRDEKTLPGKVRFFEANLLSMPVRSDKVPFLMAISDEVLQELITKMKFFNCEEATQYISHLSTLLDNIKTQAQGTDFAYVFDPLLQGAIIEEVSIRATCPSHIPLQPSLKKLLGDRLVILSHKYFSILSDDNHLPVLSRNNLENGQSANLWYEQVLPRYSRLYFMLMDGNAQSEYLKKFRDTLCTPSTIIQIGANASIGYGYCQISELSPF
2 | binds | B. fragilis Cmr6 (protein, UniProt A0A2M9V7I0 1-314) MPKNYTLQNASNLGWLFYKDYYRQEPNVDFISTQGKESDTTADFFRKTNQRITAYQLNSESPLVAAFNNHFGTPLQLKTIYPGLITGSGLPHQTGSKGEFKLGFQFDYTTGLPYIPGSSIKGTLRSMFPFSLKDKGSTKRILPEYRKERMEYIRDLIIEVTNINEISDTEIQALEYAIFTNSTPSGKTIEFSLEEKDVFYDAFVADSKDGVMLSDDYITPHGENPLKDPKPILFLKIRPDVTINFYFKLCTTHLYKEKVCSSKQIEEIKKQNDFSSSDYKMITAHQKRNLFEKILLCIGIGAKTNIGYGQLKKL
